Results from US20250108038A1 (priority 2023, published 2025).
Like-named read-outs stand apart in the source and are kept apart here.

Details: rat, in vivo
Experimental: Twelve male Wistar Han rats were divided into 4 groups, n=3 per group.
Dose solutions were prepared freshly on the day of study prior to dosing.
The animals were weighed immediately prior to dosing and the dose volume was calculated individually based the obtained body weight and the nominal dose volume. […] The test articles were administered either orally by gavage, or intraperitoneally by injection. The nominal dose volume was 10 mL/kg for both compounds and both routes.
Cage side observation was performed before and after dosing as well as at each scheduled sample collection. The observation included appearance, posture, behavior, morbidity and mortality. Abnormal findings, if any, were recorded in the study notebook and communicated with study director, veterinarian, and Supernus if necessary.
Approximately 100 μL blood was collected at each scheduled time point from jugular veins. The actual sample collection time was within 1 min. of the nominal time for collections prior to or at 1 hour, and within 5% of the nominal time for collections post 1 hour.
The blood samples were placed in pre-labeled micro-centrifuge tubes containing K2EDTA as anticoagulant and kept on ice, and then were processed to plasma within 30 minutes of collection by centrifugation at 4° C., 3000 g for 5 minutes, and then stored at −70±10° C. until analysis by LC-MS/MS.
Plasma concentrations below the LLOQ prior to Tmax were set to zero, and those after Tmax were excluded from PK calculation. The nominal dose and the nominal sample collection time were used for the calculation. The values of plasma concentrations and PK parameters are reported to three significant figures. The average values of each treatment group are presented as mean±SD.

Compound | AUC0-last of Compound B (ip) | Cmax of Compound B (ip) [ng/mL] | MRT0-last of Compound B (ip) [h] | Tmax of Compound B (ip) [h] | AUC0-last of Compound B (po) [ng·h/mL] | Cmax of Compound B (po) [ng/mL] | MRT0-last of Compound B (po) [h] | Tmax of Compound B (po) [h]
COCCOC1(c2ccc(Cl)cc2)c2ccccc2C2=NCCN21 (centres unmarked) [Compound I-4] | 196 30.1 ng·h/mL | 11.3 ± 0.709 | 11.9 ± 0.993 | 6.67 ± 2.31 | 264 ± 24.1 | 17.9 ± 4.7 | 11.9 ± 0.682 | 8.00 ± 0
Clc1ccc(C2(OCC3OCCO3)c3ccccc3C3=NCCN32)cc1 (centres unmarked) [Compound I-19] | 368 ± 243 ng·h/mL | 28.4 ± 9.15 | 8.79 ± 3.82 | – | 346 ± 29.7 | 24.6 ± 7.67 | 11.9 ± 1.81 | –
